PubChem BioAssay AID1259308 | NCATS – 2017
Shown is a random part of about 59,000 deposited reagents. Of all reagents, about 1,510 (2.6%) got an active call. 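Calls use total luciferase alone and ignore viability, so some active siRNAs may act by altering cell number.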 The numbers tell different reagents against one gene apart.

Assay: 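Knock-downs that increase output of a recombinant reporter protein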 (primary screen)
System: human HEK293 embryonic kidney cells stably expressing firefly luciferase (HEK-CMV-Luc2-Hygro)
Knock-down reagent: single siRNA against human genes, 0.8 pmol siRNA per well
Duration: 72 h
Detection: 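Luciferase light (ONE-Glo) measured on one replicate plate set and viability (CellTiter-Glo) on the other, scaled to a negative control siRNA, with robust z-scores and luciferase per cell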
Scale: total luciferase, z-score and total luciferase, % of control: higher = more reporter protein produced; luciferase per cell, z-score: higher = more reporter output per viable cell; viable cells, % of control: higher = more viable cells
Call rule: 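An siRNA counts as active if its total luciferase robust z-score exceeds 3; genes with two or more such siRNAs out of three were retested with fresh siRNAs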
Meaning of the calls: active = raised luciferase; inactive = no rise

The first 2 records as a preview:
| gene | siRNA no. | total luciferase, z-score | total luciferase, % of control | luciferase per cell, z-score | viable cells, % of control | activity call |
| --- | --- | --- | --- | --- | --- | --- |
| UCHL5 | 1 | -2.12 | 39.7 | -2.55 | 86.8 | inactive |
| UCHL5 | 2 | -0.8 | 66 | -0.361 | 81.1 | inactive |

The listing, from the start:
| gene | siRNA no. | total luciferase, z-score | total luciferase, % of control | luciferase per cell, z-score | viable cells, % of control | activity call |
| --- | --- | --- | --- | --- | --- | --- |
| UCHL5 | 1 | -2.12 | 39.7 | -2.55 | 86.8 | inactive |
| UCHL5 | 2 | -0.8 | 66 | -0.361 | 81.1 | inactive |
| UCHL5 | 3 | -0.295 | 76 | -0.707 | 102 | inactive |
| EFNB2 | 1 | 0.153 | 84.9 | -0.285 | 102 | inactive |
| EFNB2 | 2 | -0.158 | 78.8 | -0.428 | 98.5 | inactive |
| EFNB2 | 3 | 0.608 | 94 | 0.598 | 89.7 | inactive |
| IL16 | 1 | 0.623 | 94.3 | 0.65 | 88.8 | inactive |
| IL16 | 2 | -0.708 | 67.8 | -0.435 | 85 | inactive |
| IL16 | 3 | -1.8 | 46 | -0.15 | 53.5 | inactive |
| MYL12BP3 | 1 | 4.23 | 166 | 2.67 | 91.7 | active |
| MYL12BP3 | 2 | 2.47 | 131 | 1.49 | 99 | inactive |
| MYL12BP3 | 3 | -0.109 | 79.7 | -0.00661 | 89.2 | inactive |
| PCNT | 1 | -0.436 | 73.2 | -0.17 | 85.6 | inactive |
| PCNT | 2 | 0.619 | 94.2 | 1.07 | 79.4 | inactive |
| PCNT | 3 | 0.0401 | 82.7 | -0.304 | 100 | inactive |
| PAM16 | 1 | -2.32 | 35.7 | -2.64 | 79.9 | inactive |
| PAM16 | 2 | -0.708 | 67.8 | -0.668 | 90.3 | inactive |
| PAM16 | 3 | -1.23 | 57.3 | -0.848 | 80.1 | inactive |
| GLRB | 1 | -0.581 | 70.3 | -0.848 | 98.3 | inactive |
| GLRB | 2 | 0.607 | 94 | 0.58 | 90.1 | inactive |
| GLRB | 3 | -0.388 | 74.2 | -1.07 | 110 | inactive |
| TAS2R19 | 1 | 0.699 | 95.8 | 0.946 | 83.5 | inactive |
| TAS2R19 | 2 | 1.54 | 113 | 2.04 | 73.6 | inactive |
| TAS2R19 | 3 | -0.269 | 76.5 | -0.465 | 96.6 | inactive |
| UNC119B | 1 | -0.711 | 67.7 | -1.15 | 103 | inactive |
| UNC119B | 2 | -0.478 | 72.4 | -0.344 | 88.5 | inactive |
| UNC119B | 3 | -0.525 | 71.4 | -0.613 | 93.8 | inactive |
| MTOR | 1 | -1.33 | 55.5 | -0.681 | 74.2 | inactive |
| MTOR | 2 | -1.55 | 51.1 | -1.85 | 92.8 | inactive |
| MTOR | 3 | -0.584 | 70.3 | -0.412 | 87.5 | inactive |
| PRRT3 | 1 | 0.845 | 98.7 | 1.37 | 77 | inactive |
| PRRT3 | 2 | -0.804 | 65.9 | -1.58 | 112 | inactive |
| PRRT3 | 3 | 0.62 | 94.2 | 0.0448 | 104 | inactive |
| ACRBP | 1 | 1.12 | 104 | 0.52 | 102 | inactive |
| ACRBP | 2 | 3.01 | 142 | 2.7 | 77.8 | active |
| ACRBP | 3 | -0.596 | 70 | -0.935 | 100 | inactive |
| MAP4 | 1 | 0.582 | 93.5 | 1.17 | 76.8 | inactive |
| MAP4 | 2 | 0.962 | 101 | 0.768 | 92.2 | inactive |
| MAP4 | 3 | -1.93 | 43.5 | -2.1 | 84.5 | inactive |
